PubChem BioAssay AID493014 (National Center for Advancing Translational Sciences (NCATS), 2011)
The other results are listed elsewhere or left out. Further columns of the screen follow, without active or inactive calls. The list favours compounds with an active or inconclusive main result. Potencies come from curve fits of mixed quality, noted in brackets.

Assay: qHTS Assay to Find Inhibitors of Chronic Active B-Cell Receptor Signaling
Settings: ABC-DLBCL IkBa-CBG/CBR reporter, luminescence ratio (green luciferase fused to IkBa over red control in TMD8 lymphoma cells), 4 h
How it was run: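 Cell line TMD8 (human ABC DLBCL), stably expressing tet-inducible CBG68-IkBa fusion and CBR; IMDM/0.5% FBS; cpd up to 46 uM; dox induction, 4 h, 37C/5% CO2; dual luminescence; green/red ratio; MG132 control.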

[1] = measured here: CBR red luminescence, cell number
[2] = measured here: IkBa-CBG green luminescence

Row | SMILES | AC50 [1] | AC50 [2]
1 | CC(=O)c1ccc(N2CCCC2)c(F)c1 | 16.4 µM [rising, single point] | –
2 | CS(=O)(=O)N1CCC(C(=O)NCCC2=CCCCC2)CC1 | 0.326 µM [rising, full curve, poor fit] | –
3 | Cc1cc(C(=O)N/N=C/c2ccccc2[N+](=O)[O-])c(C)o1 | 22.4 µM [falling, partial curve, poor fit] | –
4 | COC(=O)c1ccc(C2c3c(oc4cc(C)c(C)cc4c3=O)C(=O)N2CCCN(C)C)cc1 (configuration not stated) | 7.08 µM [falling, partial curve, poor fit] | –
5 | CC(C)CNC(=O)c1cc(-c2ccc3c(c2)OCO3)on1 | 4.47 µM [falling, full curve] | –
6 | Cc1[nH]c(C)c(S(=O)(=O)N2CCCCC2C)c1C(=O)N1CCCC1 (configuration not stated) | 20 µM [rising, partial curve, poor fit] | –
7 | Cn1c(SCC(=O)Nc2cccnc2Cl)nc2ccccc21 | 25.9 µM [rising, single point] | 20.6 µM [falling, single point]
8 | Cc1cc(C)cc(NC(=O)C2CCN(C(=O)[C@@H]3Cc4ccccc4CN3)CC2)c1 | 10 µM [falling, partial curve] | –
9 | COc1ccc2c(c1OC)C(=O)OC2Nc1nc(-c2ccc(-c3ccccc3)cc2)cs1 (configuration not stated) | 20.6 µM [falling, partial curve] | –
10 | CCOC(=O)C(CC)/C(C)=N\NC(=O)c1ccccc1O (configuration not stated) | 2.06 µM [falling, full curve] | –
11 | O=S(=O)(Nc1ccccc1N1CCOCC1)c1cccs1 | 20.6 µM [rising, single point] | –
12 | COc1ccc(/C=N/NC(=O)C2C3CCCCC32)cc1OC (configuration not stated) | 6.31 µM [rising, single point] | –
13 | CSc1nsc(SCC(=O)Nc2nc3ccc(C)cc3s2)n1 | 0.326 µM [rising, full curve, poor fit] | –
14 | Cn1nc(-c2ccc(Cl)cc2)c2cc(C(=O)NCCN3CCOCC3)sc21 | 29.1 µM [falling, single point] | –
15 | Cc1occc1C(=O)NNC(=O)c1ccccc1C(=O)O | 2 µM [falling, full curve] | –
16 | O=C(Nc1ccc(Br)cn1)c1cccc(C(=O)Nc2ccc(Br)cn2)c1 | 14.1 µM [falling, single point] | –
17 | O=C(NC(=S)Nc1nc(-c2cccc3ccccc23)cs1)c1cc2ccccc2o1 | 23.1 µM [rising, partial curve, poor fit] | –
18 | Cc1cc2cc(C=C(C#N)C#N)c(Cl)nc2cc1C | 13 µM [falling, partial curve, poor fit] | –
19 | CCCCNC(=O)N(O)C1N(/N=C/c2cccs2)C(=S)SC1(C)C (configuration not stated) | 6.31 µM [rising, full curve] | –
20 | Cc1c(C(=O)Nc2ccc3c(c2)OCO3)oc2ccccc12 | 15.8 µM [falling, partial curve, poor fit] | –
21 | COc1cc(/C=N/NC(=S)NCc2ccco2)cc(OC)c1OC | 7.31 µM [falling, partial curve, poor fit] | –

Row | SMILES | AC50 [1] | AC50 [2]
22 | CCC(C)(C(=O)NC1CCCCC1)N(Cc1cccs1)C(=O)Cc1cccs1 (configuration not stated) | 7.31 µM [falling, partial curve, poor fit] | –
23 | CCc1nnc(NS(=O)(=O)c2ccc(N/C=C\C(=O)c3ccc4ccccc4c3)cc2)s1 | – | 25.9 µM [rising, single point]
24 | c1ccc2c(c1)nc1n2CCS1 | 29.1 µM [rising, partial curve, poor fit] | –
25 | Cc1cc(C)nc(NS(=O)(=O)c2ccc(NS(=O)(=O)c3ccccc3)cc2)n1 | 3.66 µM [rising, single point] | –
26 | O=C(NCCN1CCN(C(=O)c2cccc(Br)c2)CC1)C(=O)Nc1ccc(Br)cc1 | 6.31 µM [falling, partial curve, poor fit] | –
27 | CCOc1ccc(C(C(=O)NCC2CCCO2)N(C(=O)c2snc(C(N)=O)c2N)c2ccc3c(c2)OCCO3)cc1 (configuration not stated) | 14.1 µM [rising, partial curve, poor fit] | –
28 | CC(C)(C)c1cccc(OCCCSc2ncccn2)c1 | 10 µM [rising, partial curve, poor fit] | –
29 | COC(=O)c1cccc(NC(=O)CSc2nc3cccnc3n2C)c1 | 11.2 µM [falling, single point] | –
30 | CN1CCN(C2=NC(=O)/C(=C/c3cn[nH]c3-c3ccccc3)S2)CC1 | 35.5 µM [falling, single point] | –
31 | CC(C)OC(=O)CSc1nnc(CNc2ccc(Cl)cc2)n1Cc1ccccc1 | 9.2 µM [falling, partial curve, poor fit] | 25.9 µM [rising, partial curve, poor fit]
32 | Cc1cccc(NC(=O)/C=C/c2ccc3c(c2)OCO3)n1 | 6.51 µM [falling, partial curve] | –
33 | O=C(O)CCc1nc(-c2ccccc2)no1 | 2.82 µM [rising, full curve] | –
34 | COc1ccccc1Nc1nc(NCc2ccco2)nc(N)c1[N+](=O)[O-] | 35.5 µM [rising, single point] | –
35 | Cc1c(C(=O)O)cccc1-c1ccc(/C=N/n2cnnc2)o1 | 17.8 µM [rising, partial curve, poor fit] | –
36 | CC1CN=C(NC(=O)c2cccc([N+](=O)[O-])c2)S1 (configuration not stated) | 0.355 µM [rising, partial curve, poor fit] | –
37 | COP(C)(=O)c1c(C)nn(-c2ccccc2)c1C (configuration not stated) | 4.11 µM [rising, partial curve, poor fit] | –
38 | O=C(COc1ccccc1)N/N=C/c1ccc([N+](=O)[O-])o1 | 6.51 µM [rising, single point] | –
39 | COC(=O)C1=C(CSc2nc3ccccc3o2)NC(=O)NC1c1cc(C)ccc1C (configuration not stated) | 18.4 µM [falling, partial curve, poor fit] | –
40 | O=C(/C=C/Sc1ccccc1)c1ccccc1 | 11.2 µM [falling, partial curve, poor fit] | 35.5 µM [rising, single point]
41 | O=C(OCc1cccc([N+](=O)[O-])c1)c1cccnc1Cl | 3.16 µM [rising, full curve, poor fit] | –
42 | CCN(CC)c1ccc(NC(=O)COc2ccccc2C#N)cc1S(=O)(=O)Nc1ccc(OC)cc1 | 0.461 µM [falling, full curve, poor fit] | –

Sorted by count of non-hydrogen atoms (ascending): part of the list above
Row | SMILES | AC50 [1] | AC50 [2]
24 | c1ccc2c(c1)nc1n2CCS1 | 29.1 µM [rising, partial curve, poor fit] | –
36 | CC1CN=C(NC(=O)c2cccc([N+](=O)[O-])c2)S1 (configuration not stated) | 0.355 µM [rising, partial curve, poor fit] | –
31 | CC(C)OC(=O)CSc1nnc(CNc2ccc(Cl)cc2)n1Cc1ccccc1 | 9.2 µM [falling, partial curve, poor fit] | 25.9 µM [rising, partial curve, poor fit]

Next part:

Row | SMILES | AC50 [1] | AC50 [2]
43 | COc1cc2c(cc1NC(=O)CN(C)Cc1cccc(OC)c1OC)oc1ccccc12 | – | 20.6 µM [rising, single point]
44 | Nc1c(C(=O)N/N=C/c2ccccc2)cnn1-c1ccccc1 | 31.6 µM [falling, single point] | –
45 | COc1ccc(N/N=C(/C(C)=O)N2CCCc3ccccc32)cc1 | 0.1 µM [falling, full curve, poor fit] | –
46 | CC(=O)c1c(C)[nH]c(C(=O)OCc2c(F)cccc2Cl)c1C | 35.5 µM [rising, single point] | –
47 | CNC(=O)N/N=C(\N)c1ccccn1 | 15.8 µM [falling, partial curve, poor fit] | –
48 | NS(=O)(=O)c1ccc(CNC(=O)c2cccc(Oc3ccccc3)c2)cc1 | 35.5 µM [falling, single point] | –
49 | COc1ccc(C(CNC(=O)c2cccn2C)N2CCOCC2)cc1 (configuration not stated) | 29.1 µM [rising, single point] | –
50 | CN(C)/C=C1\Oc2ccc3ccccc3c2C1=O | 35.5 µM [falling, single point] | –
51 | CC(=O)Oc1ccc(C(=O)Nc2cc(NC(=O)c3ccc(OC(C)=O)cc3)cc(C(=O)NC(C)(C)C)c2)cc1 | 18.4 µM [falling, single point] | –
52 | CCOC(=O)c1c(N2C(=O)C3C4C=CC(C4)C3C2=O)sc2c1CCC(C)C2 (configuration not stated) | 0.184 µM [falling, full curve, poor fit] | –
53 | CCN(CC)c1ccc(/C=N/NC(=O)Cc2ccc(OC)c(OC)c2)cc1 | – | 11.2 µM [falling, partial curve, poor fit]
54 | COc1ccc(NC(=O)c2cccc(N3C(=O)C4C5C=CC(C5)C4C3=O)c2)c(OC)c1 (configuration not stated) | 5.01 µM [falling, partial curve] | –
55 | Cc1ccc2sc(-c3ccc(NC(=O)CCN4C(=O)c5ccccc5C4=O)cc3)nc2c1 | 0.517 µM [rising, full curve, poor fit] | –
56 | Cc1csc(NC(=O)CSc2ccc(-c3ccccc3)nn2)n1 | 3.98 µM [falling, single point] | –
57 | C[C@H]1CN([C@@H](C)CO)C(=O)Cc2cc(NC(=O)C3CC3)ccc2O[C@H]1CN(C)Cc1ccc(C(=O)O)cc1 | 7.31 µM [rising, partial curve] | –
58 | CCS(=O)(=O)Nc1ccc2c(c1)N(C(C)=O)c1ccccc1CC2 | 29.1 µM [falling, single point] | –
59 | Nc1nc(NCCO)nc(NCc2ccccc2)c1[N+](=O)[O-] | 22.4 µM [falling, single point] | –
60 | NC(=O)c1cccc(S(=O)(=O)N2CCCCC2)c1 | 0.517 µM [rising, full curve, poor fit] | –
61 | C=CCOc1ccc2nc(NC(=O)OC)[nH]c2c1 | 29.1 µM [rising, single point] | 5.17 µM [falling, partial curve, poor fit]
62 | S=c1[nH]cnc2sc(-c3ccccc3)cc12 | 0.282 µM [rising, partial curve, poor fit] | 3.16 µM [falling, partial curve, poor fit]
